Reference: the supplement of paper PMC10849652
This is one part of the list.

By UniProt entry, the sequences of proteins in these tests, tags left out. Where a name states a change or a piece, a line headed by the entry shows the natural chain unless it says otherwise.
UniProt Q9P0K8: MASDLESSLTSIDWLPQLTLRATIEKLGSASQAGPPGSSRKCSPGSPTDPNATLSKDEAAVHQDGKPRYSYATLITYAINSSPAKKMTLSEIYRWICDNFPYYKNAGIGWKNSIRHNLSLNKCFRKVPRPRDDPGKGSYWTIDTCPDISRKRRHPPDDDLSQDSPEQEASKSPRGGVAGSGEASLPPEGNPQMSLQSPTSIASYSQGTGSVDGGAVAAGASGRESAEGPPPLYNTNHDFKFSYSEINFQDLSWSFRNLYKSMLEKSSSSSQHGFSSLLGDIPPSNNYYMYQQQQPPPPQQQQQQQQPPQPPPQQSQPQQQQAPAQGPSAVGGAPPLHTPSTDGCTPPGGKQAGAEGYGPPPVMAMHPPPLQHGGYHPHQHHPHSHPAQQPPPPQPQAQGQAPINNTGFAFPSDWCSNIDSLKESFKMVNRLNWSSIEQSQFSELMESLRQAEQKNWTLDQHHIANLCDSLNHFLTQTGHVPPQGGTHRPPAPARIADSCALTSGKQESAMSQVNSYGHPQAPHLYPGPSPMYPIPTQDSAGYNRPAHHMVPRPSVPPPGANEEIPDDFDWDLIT
UniProt Q8NFZ0: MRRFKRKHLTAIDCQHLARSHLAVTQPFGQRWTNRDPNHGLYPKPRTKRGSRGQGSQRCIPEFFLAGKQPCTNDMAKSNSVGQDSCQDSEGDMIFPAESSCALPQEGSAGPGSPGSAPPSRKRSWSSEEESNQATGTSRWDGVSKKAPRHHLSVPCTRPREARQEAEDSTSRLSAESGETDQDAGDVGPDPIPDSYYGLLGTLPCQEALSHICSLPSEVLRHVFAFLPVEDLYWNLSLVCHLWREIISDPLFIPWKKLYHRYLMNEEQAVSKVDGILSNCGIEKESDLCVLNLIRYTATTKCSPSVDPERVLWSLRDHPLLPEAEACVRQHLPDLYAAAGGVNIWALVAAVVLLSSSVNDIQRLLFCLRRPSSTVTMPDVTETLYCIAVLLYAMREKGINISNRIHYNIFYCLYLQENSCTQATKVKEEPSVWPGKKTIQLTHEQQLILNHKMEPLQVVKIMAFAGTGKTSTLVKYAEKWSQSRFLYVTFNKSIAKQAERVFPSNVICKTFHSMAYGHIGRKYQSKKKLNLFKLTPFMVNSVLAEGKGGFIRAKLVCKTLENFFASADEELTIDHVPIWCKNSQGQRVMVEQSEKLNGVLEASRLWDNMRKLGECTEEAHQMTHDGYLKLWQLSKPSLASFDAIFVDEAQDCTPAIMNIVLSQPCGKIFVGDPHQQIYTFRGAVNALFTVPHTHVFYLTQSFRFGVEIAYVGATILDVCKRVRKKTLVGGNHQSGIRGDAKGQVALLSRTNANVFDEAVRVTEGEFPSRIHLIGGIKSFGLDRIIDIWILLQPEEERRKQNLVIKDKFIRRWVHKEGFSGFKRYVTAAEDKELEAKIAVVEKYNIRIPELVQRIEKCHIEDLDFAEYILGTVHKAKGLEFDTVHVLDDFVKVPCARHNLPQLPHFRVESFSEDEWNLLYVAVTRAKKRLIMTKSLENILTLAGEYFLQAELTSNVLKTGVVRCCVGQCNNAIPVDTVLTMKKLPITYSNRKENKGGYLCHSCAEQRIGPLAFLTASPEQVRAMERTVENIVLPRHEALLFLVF
UniProt O94887: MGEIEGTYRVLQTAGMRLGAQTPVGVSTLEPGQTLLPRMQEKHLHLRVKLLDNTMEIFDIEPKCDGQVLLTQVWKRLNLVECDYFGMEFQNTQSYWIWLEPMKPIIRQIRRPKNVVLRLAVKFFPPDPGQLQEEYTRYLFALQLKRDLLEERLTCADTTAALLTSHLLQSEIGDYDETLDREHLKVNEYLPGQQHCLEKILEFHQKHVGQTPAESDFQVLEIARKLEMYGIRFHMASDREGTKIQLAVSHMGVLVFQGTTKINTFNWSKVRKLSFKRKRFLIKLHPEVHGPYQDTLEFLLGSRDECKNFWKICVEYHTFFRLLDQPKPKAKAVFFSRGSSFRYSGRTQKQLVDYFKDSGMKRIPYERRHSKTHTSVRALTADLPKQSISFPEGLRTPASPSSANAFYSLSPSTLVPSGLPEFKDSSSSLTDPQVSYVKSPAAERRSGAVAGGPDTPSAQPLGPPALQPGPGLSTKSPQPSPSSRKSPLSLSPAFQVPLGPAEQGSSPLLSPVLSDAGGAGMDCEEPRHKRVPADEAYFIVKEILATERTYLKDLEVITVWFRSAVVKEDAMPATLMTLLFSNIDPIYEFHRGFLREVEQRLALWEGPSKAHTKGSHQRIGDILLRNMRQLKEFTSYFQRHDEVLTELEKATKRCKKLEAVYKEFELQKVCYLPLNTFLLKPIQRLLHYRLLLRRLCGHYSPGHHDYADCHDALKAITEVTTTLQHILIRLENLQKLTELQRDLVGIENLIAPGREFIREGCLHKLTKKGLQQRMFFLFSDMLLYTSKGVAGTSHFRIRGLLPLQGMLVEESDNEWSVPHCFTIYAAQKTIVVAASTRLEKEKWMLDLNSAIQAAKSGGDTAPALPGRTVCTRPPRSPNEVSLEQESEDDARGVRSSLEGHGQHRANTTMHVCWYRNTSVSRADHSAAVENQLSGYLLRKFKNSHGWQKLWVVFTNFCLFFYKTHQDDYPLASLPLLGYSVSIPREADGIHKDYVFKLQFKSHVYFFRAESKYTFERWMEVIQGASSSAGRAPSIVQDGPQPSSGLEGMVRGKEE
UniProt Q86XK2: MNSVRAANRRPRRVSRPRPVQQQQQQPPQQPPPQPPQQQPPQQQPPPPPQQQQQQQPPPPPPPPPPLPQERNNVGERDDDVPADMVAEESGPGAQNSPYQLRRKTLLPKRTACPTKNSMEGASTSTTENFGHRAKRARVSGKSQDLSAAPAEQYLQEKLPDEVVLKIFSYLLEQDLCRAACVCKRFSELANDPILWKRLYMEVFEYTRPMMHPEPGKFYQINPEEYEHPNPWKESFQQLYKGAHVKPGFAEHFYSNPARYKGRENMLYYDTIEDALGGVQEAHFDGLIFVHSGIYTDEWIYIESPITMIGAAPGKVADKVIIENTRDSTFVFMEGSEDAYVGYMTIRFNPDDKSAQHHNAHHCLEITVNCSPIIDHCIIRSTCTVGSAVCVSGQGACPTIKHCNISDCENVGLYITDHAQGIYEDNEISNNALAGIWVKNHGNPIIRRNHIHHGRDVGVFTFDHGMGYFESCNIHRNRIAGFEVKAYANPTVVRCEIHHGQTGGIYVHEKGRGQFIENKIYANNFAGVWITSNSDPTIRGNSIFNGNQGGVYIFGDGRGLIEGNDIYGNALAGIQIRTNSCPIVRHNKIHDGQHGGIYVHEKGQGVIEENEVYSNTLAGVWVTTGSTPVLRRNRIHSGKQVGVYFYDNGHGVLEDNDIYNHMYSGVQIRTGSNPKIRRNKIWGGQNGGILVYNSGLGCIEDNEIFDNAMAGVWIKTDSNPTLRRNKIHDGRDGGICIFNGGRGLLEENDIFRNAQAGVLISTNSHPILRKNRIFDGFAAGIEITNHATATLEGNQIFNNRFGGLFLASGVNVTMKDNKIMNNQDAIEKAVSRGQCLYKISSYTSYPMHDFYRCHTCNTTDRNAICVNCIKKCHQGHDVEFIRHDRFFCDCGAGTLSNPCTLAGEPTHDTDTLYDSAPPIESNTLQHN
UniProt Q92913: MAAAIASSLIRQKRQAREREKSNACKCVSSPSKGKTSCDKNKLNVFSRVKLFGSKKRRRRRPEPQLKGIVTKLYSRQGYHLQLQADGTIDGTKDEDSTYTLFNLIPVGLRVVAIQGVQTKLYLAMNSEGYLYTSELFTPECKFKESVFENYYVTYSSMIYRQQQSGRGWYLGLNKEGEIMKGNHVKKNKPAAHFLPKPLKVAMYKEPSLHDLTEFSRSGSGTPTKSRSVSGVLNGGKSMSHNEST
UniProt Q9NW38: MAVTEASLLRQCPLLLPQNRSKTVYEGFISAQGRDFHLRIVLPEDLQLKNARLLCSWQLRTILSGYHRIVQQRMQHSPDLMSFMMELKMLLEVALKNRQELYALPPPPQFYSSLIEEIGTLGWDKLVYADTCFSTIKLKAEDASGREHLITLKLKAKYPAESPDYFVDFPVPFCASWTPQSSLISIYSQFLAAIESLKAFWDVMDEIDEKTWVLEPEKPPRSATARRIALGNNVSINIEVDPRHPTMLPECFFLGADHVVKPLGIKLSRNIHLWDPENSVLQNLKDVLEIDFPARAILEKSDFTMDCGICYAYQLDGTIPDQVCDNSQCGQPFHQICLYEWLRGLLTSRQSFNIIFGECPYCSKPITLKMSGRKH
UniProt Q9UKB1: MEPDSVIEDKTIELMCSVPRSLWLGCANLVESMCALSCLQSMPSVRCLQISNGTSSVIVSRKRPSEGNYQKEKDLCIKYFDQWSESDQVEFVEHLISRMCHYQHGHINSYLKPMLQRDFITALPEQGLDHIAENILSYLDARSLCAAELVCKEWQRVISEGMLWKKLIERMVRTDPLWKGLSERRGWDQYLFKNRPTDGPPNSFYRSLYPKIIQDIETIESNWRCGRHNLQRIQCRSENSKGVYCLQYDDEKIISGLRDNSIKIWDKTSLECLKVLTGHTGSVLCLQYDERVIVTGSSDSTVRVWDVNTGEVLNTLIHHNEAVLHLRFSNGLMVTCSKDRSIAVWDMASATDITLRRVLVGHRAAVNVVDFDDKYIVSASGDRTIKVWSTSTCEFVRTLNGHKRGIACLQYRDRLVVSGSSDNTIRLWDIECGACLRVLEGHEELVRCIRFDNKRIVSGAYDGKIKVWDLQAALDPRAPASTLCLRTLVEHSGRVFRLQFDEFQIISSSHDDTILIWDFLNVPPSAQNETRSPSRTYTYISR
UniProt Q6ZRV2: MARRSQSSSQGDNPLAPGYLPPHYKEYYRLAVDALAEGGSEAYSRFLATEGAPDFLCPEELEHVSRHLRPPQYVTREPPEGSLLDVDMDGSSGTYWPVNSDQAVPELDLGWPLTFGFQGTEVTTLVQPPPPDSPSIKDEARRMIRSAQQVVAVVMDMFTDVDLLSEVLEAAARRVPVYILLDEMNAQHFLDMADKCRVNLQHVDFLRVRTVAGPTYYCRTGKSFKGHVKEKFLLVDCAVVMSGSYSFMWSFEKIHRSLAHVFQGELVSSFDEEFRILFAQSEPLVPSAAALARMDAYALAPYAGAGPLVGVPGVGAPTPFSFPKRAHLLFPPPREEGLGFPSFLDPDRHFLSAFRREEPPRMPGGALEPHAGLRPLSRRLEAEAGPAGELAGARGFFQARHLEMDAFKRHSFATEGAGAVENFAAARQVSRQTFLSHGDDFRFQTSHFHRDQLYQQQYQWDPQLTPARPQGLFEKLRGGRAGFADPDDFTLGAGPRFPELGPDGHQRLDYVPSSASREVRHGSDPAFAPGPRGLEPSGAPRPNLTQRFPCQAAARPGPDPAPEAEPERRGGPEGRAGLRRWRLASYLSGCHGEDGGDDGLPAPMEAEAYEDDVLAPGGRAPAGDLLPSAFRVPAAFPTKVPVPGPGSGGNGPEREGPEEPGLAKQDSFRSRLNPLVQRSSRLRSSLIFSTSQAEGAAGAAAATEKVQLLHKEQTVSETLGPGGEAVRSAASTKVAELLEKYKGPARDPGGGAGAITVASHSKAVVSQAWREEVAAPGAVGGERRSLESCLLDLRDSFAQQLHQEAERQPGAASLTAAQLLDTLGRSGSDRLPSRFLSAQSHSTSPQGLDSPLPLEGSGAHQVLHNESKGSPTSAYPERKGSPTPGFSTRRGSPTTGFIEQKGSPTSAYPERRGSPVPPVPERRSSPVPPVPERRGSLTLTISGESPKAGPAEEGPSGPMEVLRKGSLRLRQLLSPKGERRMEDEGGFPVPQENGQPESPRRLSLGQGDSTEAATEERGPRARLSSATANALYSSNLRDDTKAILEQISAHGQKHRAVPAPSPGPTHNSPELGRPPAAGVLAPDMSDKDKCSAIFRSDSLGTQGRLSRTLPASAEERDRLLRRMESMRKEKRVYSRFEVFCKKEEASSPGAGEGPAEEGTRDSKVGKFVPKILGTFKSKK
UniProt Q96AY3, whole entry, looked up: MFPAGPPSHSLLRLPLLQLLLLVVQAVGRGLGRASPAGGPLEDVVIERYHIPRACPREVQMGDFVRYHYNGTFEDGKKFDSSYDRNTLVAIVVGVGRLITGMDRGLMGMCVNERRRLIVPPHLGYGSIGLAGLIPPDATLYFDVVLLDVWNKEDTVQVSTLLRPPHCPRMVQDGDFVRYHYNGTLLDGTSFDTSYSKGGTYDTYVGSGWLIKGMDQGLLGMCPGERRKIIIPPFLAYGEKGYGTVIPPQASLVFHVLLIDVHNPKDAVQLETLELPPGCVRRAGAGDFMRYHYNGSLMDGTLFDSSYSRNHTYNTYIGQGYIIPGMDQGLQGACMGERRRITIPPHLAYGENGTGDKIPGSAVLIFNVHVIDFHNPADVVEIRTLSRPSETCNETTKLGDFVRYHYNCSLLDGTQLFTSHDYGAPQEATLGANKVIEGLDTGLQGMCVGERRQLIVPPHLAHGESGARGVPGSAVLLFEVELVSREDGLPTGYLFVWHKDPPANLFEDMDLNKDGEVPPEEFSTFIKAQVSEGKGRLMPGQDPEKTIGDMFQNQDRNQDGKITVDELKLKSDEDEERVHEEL

Each target was assayed with C1=CC=C(C=C1)[C@H](COC2=CC3=C(C=C2)NC(=O)N3)NC(=O)C4=CC=CN(C4=O)CC5=CC(=C(C=C5)F)F (assay: log2 fold change, soluble protein after heating vs DMSO (PISA); higher = thermal stabilisation; K562 lysate, 10 uM; active = over 0.2 and 3.5 SD of the protein, either way, in both replicates (recomputed)).
Method in brief: (§1)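 K562 pellets were dounce-homogenised in PBS pH 7.4 containing 1 mM MgCl2, and the crude extract, at 1 mg/mL protein, was exposed to 10 μM compound for 30 min. Aliquots were heated for 3 min across 48°C-58°C, pooled, brought to 0.5% NP-40 at 4°C and spun at 21,000xg for 90 min, with the supernatant taken as soluble protein. TMTpro 16plex LC-MS/MS with equalised channel sums quantified that protein. Values are log-two fold changes in thermal stability relative to solvent controls, taken from duplicates.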
In the case of FOXJ2 (UniProt Q9P0K8), the log2 fold change is reported as inactive: 0.022. With FBH1 isoform 2 (UniProt Q8NFZ0) the log2 fold change was inactive: -0.052. For FIZ1 (UniProt Q96SL8), the log2 fold change was inactive: 0.014. In the case of FARP2 (UniProt O94887), the log2 fold change is reported as inactive: -0.229. For FBXO11 isoform 5 (UniProt Q86XK2), the log2 fold change was inactive: -0.291. FGF13 isoform 3 (UniProt Q92913) was tested, and the log2 fold change was inactive: 0.001. In the case of FANCL isoform 2 (UniProt Q9NW38), the log2 fold change is reported as inactive: 0.014. In the case of FBXW11 (UniProt Q9UKB1), the log2 fold change is reported as inactive: 0.12.

The targets below were run with CC1=C(SC2=C1C(=N[C@H](C3=NN=C(N32)C)CC(=O)N)C4=CC=C(C=C4)Cl)C in the same assay as above.
Method in brief: as §1
With FOXJ2 (UniProt Q9P0K8) the log2 fold change was inactive: 0.06. FBH1 isoform 2 (UniProt Q8NFZ0) was tested, and the log2 fold change was inactive: 0.05. For FIZ1 (UniProt Q96SL8), the log2 fold change was inactive: 0.113. FARP2 (UniProt O94887) was tested, and the log2 fold change was inactive: 0.062. In the case of FBXO11 isoform 5 (UniProt Q86XK2), the log2 fold change is reported as inactive: -0.156. With FGF13 isoform 3 (UniProt Q92913) the log2 fold change was inactive: -0.072. For FANCL isoform 2 (UniProt Q9NW38), the log2 fold change was inactive: 0.026. For FBXW11 (UniProt Q9UKB1), the log2 fold change was inactive: -0.077.

These targets were tested with CC1=C2C(=CC=C1)N=C(N(C2=O)C3=CC=CC=C3C)CN4C=NC5=C(N=CN=C54)N in the same assay as above.
Method in brief: as §1
FLII isoform 2 (UniProt Q13045) was tested, and the log2 fold change was inactive: 0.052. FHAD1 isoform 3 (UniProt B1AJZ9) was tested, and the log2 fold change was inactive: 0.204. For FARP2 (UniProt H7C3M7), the log2 fold change was inactive: -0.018. FEM1A (UniProt Q9BSK4) was tested, and the log2 fold change was inactive: 0.072. In the case of FANCG (UniProt O15287), the log2 fold change is reported as inactive: -0.063. For FBXL15 (UniProt Q9H469), the log2 fold change was inactive: -0.029. FKRP (UniProt Q9H9S5) was tested, and the log2 fold change was inactive: 0.078. In the case of FGFR1OP isoform 3 (UniProt O95684), the log2 fold change is reported as inactive: -0.257. FASTKD1 (UniProt Q53R41) was tested, and the log2 fold change was inactive: 0.024. FLNA (UniProt H0Y5C6) was tested, and the log2 fold change was inactive: 0.08. For FEN1 (UniProt I3L3E9), the log2 fold change was inactive: -0.074. FAM83H (UniProt Q6ZRV2) was tested, and the log2 fold change was inactive: -0.173. In the case of FANCA (UniProt O15360), the log2 fold change is reported as inactive: 0.115.

What follows are targets tested with Cc1sc2c(c1C)C(c1ccc(Cl)cc1)=N[C@@H](CC(=O)OC(C)(C)C)c1nnc(C)n1-2 in the same assay as above.
Method in brief: as §1
In the case of FANCE (UniProt Q9HB96), the log2 fold change is reported as inactive: -0.14. For FOXJ2 (UniProt Q9P0K8), the log2 fold change was inactive: 0.015. In the case of FHAD1 isoform 3 (UniProt B1AJZ9), the log2 fold change is reported as inactive: -0.047. FLYWCH1 isoform 3 (UniProt Q4VC44) was tested, and the log2 fold change was inactive: -0.058. FARP2 (UniProt O94887) was tested, and the log2 fold change was inactive: -0.004. FCF1 (UniProt Q9Y324) was tested, and the log2 fold change was inactive: -0.074. For FARP2 (UniProt H7C3M7), the log2 fold change was inactive: -0.023. FBXL15 (UniProt Q9H469) was tested, and the log2 fold change was inactive: -0.038. With FKRP (UniProt Q9H9S5) the log2 fold change was inactive: -0.039. With FBXO11 isoform 5 (UniProt Q86XK2) the log2 fold change was inactive: 0.042. In the case of FASTKD1 (UniProt Q53R41), the log2 fold change is reported as inactive: 0.001. For FGF13 isoform 3 (UniProt Q92913), the log2 fold change was inactive: -0.007. With FKBP10 (UniProt Q96AY3) the log2 fold change was inactive: 0.023. For FMNL2 isoform 3 (UniProt Q96PY5), the log2 fold change was inactive: 0.089. With FOSL1 (UniProt P15407) the log2 fold change was inactive: -0.076. In the case of FLNA (UniProt H0Y5C6), the log2 fold change is reported as inactive: 0.039. With FILIP1L (UniProt Q4L180) the log2 fold change was inactive: -0.358. For FEM1C (UniProt Q96JP0), the log2 fold change was inactive: -0.021. For FAXDC2 (UniProt Q96IV6), the log2 fold change was inactive: -0.055. In the case of FCHSD2 (UniProt O94868), the log2 fold change is reported as inactive: 0.098. FANCL isoform 2 (UniProt Q9NW38) was tested, and the log2 fold change was inactive: 0.06. In the case of FBXW11 (UniProt Q9UKB1), the log2 fold change is reported as inactive: 0.052. In the case of FANCA (UniProt O15360), the log2 fold change is reported as inactive: -0.035.
